Results are given in words; binding and its absence hold for the method and conditions named. Binding seen in cells or lysates may run through a third protein. Some results given as binding are weak or reduced against the parent protein; the word gives no strength.
Target: MLH1 (human (endogenous in HEK293)) (UniProt P40692)
Experiment: co-IP; endogenous proteins; whole cell extract of MLH1 proficient HEK293 cells precipitated with protein A/G sepharose and anti-MLH1 or anti-SPTAN1, SDS-PAGE and Western blot; protein A/G sepharose alone as negative control

Chains of the proteins cited; added tags and fusions are not shown.
UniProt P40692: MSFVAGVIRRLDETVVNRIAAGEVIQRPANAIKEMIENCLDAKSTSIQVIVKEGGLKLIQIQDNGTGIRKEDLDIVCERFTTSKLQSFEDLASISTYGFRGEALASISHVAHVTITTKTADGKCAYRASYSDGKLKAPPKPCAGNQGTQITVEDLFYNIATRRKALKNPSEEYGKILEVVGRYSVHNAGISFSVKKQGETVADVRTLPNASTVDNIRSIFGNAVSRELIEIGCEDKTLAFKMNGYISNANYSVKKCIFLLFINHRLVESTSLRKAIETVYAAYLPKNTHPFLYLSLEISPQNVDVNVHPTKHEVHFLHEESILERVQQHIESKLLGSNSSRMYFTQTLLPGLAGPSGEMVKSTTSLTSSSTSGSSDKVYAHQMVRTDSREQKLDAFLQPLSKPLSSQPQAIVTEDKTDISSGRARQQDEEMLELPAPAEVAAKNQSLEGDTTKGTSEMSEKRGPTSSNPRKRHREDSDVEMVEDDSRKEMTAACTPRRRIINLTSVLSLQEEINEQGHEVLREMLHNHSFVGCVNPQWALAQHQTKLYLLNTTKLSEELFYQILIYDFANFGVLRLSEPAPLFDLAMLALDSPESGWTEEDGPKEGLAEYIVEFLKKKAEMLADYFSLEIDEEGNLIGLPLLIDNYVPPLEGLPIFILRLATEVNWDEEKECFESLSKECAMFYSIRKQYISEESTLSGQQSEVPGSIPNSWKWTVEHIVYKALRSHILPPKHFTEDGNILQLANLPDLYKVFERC

Substance: non-erythroid spectrin αII (SPTAN1) (from UniProt Q13813 1-2472)
- binding: binds
